# Test results reported in the supplement of paper PMC8728848.
# Some of the results follow.
# B1: ERGIC1-EDTA (Homo sapiens), Q969X5 (protein)
# chain: MKFLVNVALVFMVVYISYIYAAAHMHHHHHHDYDIPTTENLYFQGSEVVNELYVDDPDKDSGGKIDVSLNISLPNLHCELVGLDIQDEMGRHEVGHIDNSMKIPLNNGAGCRFEGQFSINKVPGNFHVSTHSATAQPQNPDMTHVIHKLSFGDTLQVQNIHGAFNALGGADRLTSNPLASHDYILKIVPTVYEDKSGKQRYSYQYTVANKEYVAYSHTGRIIPAIWFRYDLSPITVKYTE
# Key:
# Experiment in all cases: glycan array binding signal (z-score within array); higher = stronger binding
# Conditions in all cases: glycan notation: IUPAC condensed, linker removed
# [1] = target: Neu5Ac(a2-6)GlcNAc(b1-4)GlcNAc(b1-4)GlcNAc
# In short: (§1)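 The Consortium for Functional Glycomics database supplied 3228 glycan arrays, of which those lacking an available protein sequence were dropped. The binding signal, a within-array Z-score, was averaged across arrays of the same protein sequence and across linkers. Negative scores can be read as non-binding.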
# Neu5Ac(a2-8)Neu5Ac = target: Neu5Ac(a2-8)Neu5Ac
# In short: as §1
# [2] = target: Neu5Ac(a2-8)Neu5Ac(a2-3)Gal(b1-3)GalNAc(b1-4)[Neu5Ac(a2-3)]Gal(b1-4)Glc
# In short: as §1
# [3] = target: Neu5Ac(a2-8)Neu5Ac(a2-3)Gal(b1-3)GalNAc(b1-4)[Neu5Ac(a2-8)Neu5Ac(a2-3)]Gal(b1-4)Glc
# In short: as §1
# [4] = target: Neu5Ac(a2-8)Neu5Ac(a2-3)Gal(b1-4)Glc
# In short: as §1
# [5] = target: Neu5Ac(a2-8)Neu5Ac(a2-3)Gal(b1-4)GlcNAc
# In short: as §1
# [6] = target: Neu5Ac(a2-8)Neu5Ac(a2-3)[Gal(b1-3)GalNAc(b1-4)]Gal(b1-4)Glc
# In short: as §1
# [7] = target: Neu5Ac(a2-8)Neu5Ac(a2-3)[GalNAc(b1-4)]Gal(b1-4)Glc
# In short: as §1
# [8] = target: Neu5Ac(a2-8)Neu5Ac(a2-8)Neu5Ac
# In short: as §1
# [9] = target: Neu5Ac(a2-8)Neu5Ac(a2-8)Neu5Ac(a2-3)Gal(b1-4)Glc
# In short: as §1
# [10] = target: Neu5Ac(a2-8)Neu5Ac(a2-8)Neu5Ac(a2-3)[Gal(b1-3)GalNAc(b1-4)]Gal(b1-4)Glc
# In short: as §1
# [11] = target: Neu5Ac(a2-8)Neu5Ac(a2-8)Neu5Ac(a2-3)[GalNAc(b1-4)]Gal(b1-4)Glc
# In short: as §1
# [12] = target: Neu5Ac(a2-8)Neu5Ac(a2-8)Neu5Ac(a2-8)Neu5Ac(a2-3)[GalNAc(b1-4)]Gal(b1-4)Glc
# In short: as §1
# [13] = target: Neu5Ac(a2-8)Neu5Gc(a2-3)Gal(b1-4)GlcNAc
# In short: as §1
# [14] = target: Neu5Ac(b2-6)Gal(b1-4)GlcNAc
# In short: as §1
# Neu5Ac(b2-6)GalNAc = target: Neu5Ac(b2-6)GalNAc
# In short: as §1
# [15] = target: Neu5Ac9Ac(a2-3)Gal(b1-3)GlcNAc
# In short: as §1
# [16] = target: Neu5Ac9Ac(a2-3)Gal(b1-4)GlcNAc
# In short: as §1
# [17] = target: Neu5Ac9Ac(a2-6)Gal(b1-4)GlcNAc
# In short: as §1
# [18] = target: Neu5Gc(a2-3)Gal(b1-3)GlcNAc
# In short: as §1
# [19] = target: Neu5Gc(a2-3)Gal(b1-3)[Fuc(a1-4)]GlcNAc
# In short: as §1
# Neu5Gc(a2-3)Gal(b1-4)Glc = target: Neu5Gc(a2-3)Gal(b1-4)Glc
# In short: as §1
# [20] = target: Neu5Gc(a2-3)Gal(b1-4)GlcNAc
# In short: as §1
# [21] = target: Neu5Gc(a2-3)Gal(b1-4)GlcNAc(b1-3)Gal(b1-4)GlcNAc(b1-2)Man(a1-3)[Neu5Gc(a2-3)Gal(b1-4)GlcNAc(b1-3)Gal(b1-4)GlcNAc(b1-2)Man(a1-6)]Man(b1-4)GlcNAc(b1-4)GlcNAc
# In short: as §1
# [22] = target: Neu5Gc(a2-3)Gal(b1-4)[Fuc(a1-3)]GlcNAc
# In short: as §1
# [23] = target: Neu5Gc(a2-6)Gal(b1-4)GlcNAc
# In short: as §1
# Neu5Gc(a2-6)GalNAc = target: Neu5Gc(a2-6)GalNAc
# In short: as §1
# [24] = target: Neu5Gc(a2-8)Neu5Ac(a2-3)Gal(b1-4)GlcNAc
# In short: as §1
# [25] = target: Neu5Gc(a2-8)Neu5Gc(a2-3)Gal(b1-4)GlcNAc
# In short: as §1
# [26] = target: Neu5Gc(a2-8)Neu5Gc(a2-3)Gal(b1-4)GlcNAc(b1-3)Gal(b1-4)GlcNAc
# In short: as §1
# [27] = target: Neu5Gc(a2-8)Neu5Gc(a2-6)Gal(b1-4)GlcNAc
# In short: as §1
# [28] = target: Neu5Gc(b2-6)Gal(b1-4)GlcNAc
# In short: as §1
binder,measurement,setting,value
B1,glycan array binding signal (z-score),[1],-1.45
same,glycan array binding signal (z-score),Neu5Ac(a2-8)Neu5Ac,0.236
same,glycan array binding signal (z-score),[2],0.149
same,glycan array binding signal (z-score),[3],-0.353
same,glycan array binding signal (z-score),[4],0.307
same,glycan array binding signal (z-score),[5],-0.361
same,glycan array binding signal (z-score),[6],0.235
same,glycan array binding signal (z-score),[7],-0.149
same,glycan array binding signal (z-score),[8],-0.312
same,glycan array binding signal (z-score),[9],-0.342
same,glycan array binding signal (z-score),[10],-0.357
same,glycan array binding signal (z-score),[11],0.592
same,glycan array binding signal (z-score),[12],0.125
same,glycan array binding signal (z-score),[13],-0.877
same,glycan array binding signal (z-score),[14],-0.557
same,glycan array binding signal (z-score),Neu5Ac(b2-6)GalNAc,-0.459
same,glycan array binding signal (z-score),[15],0.24
same,glycan array binding signal (z-score),[16],-0.925
same,glycan array binding signal (z-score),[17],-0.805
same,glycan array binding signal (z-score),[18],0.321
same,glycan array binding signal (z-score),[19],-0.27
same,glycan array binding signal (z-score),Neu5Gc(a2-3)Gal(b1-4)Glc,0.805
same,glycan array binding signal (z-score),[20],0.051
same,glycan array binding signal (z-score),[21],0.155
same,glycan array binding signal (z-score),[22],-0.668
same,glycan array binding signal (z-score),[23],-0.464
same,glycan array binding signal (z-score),Neu5Gc(a2-6)GalNAc,-0.563
same,glycan array binding signal (z-score),[24],-0.372
same,glycan array binding signal (z-score),[25],0.596
same,glycan array binding signal (z-score),[26],-0.671
same,glycan array binding signal (z-score),[27],-0.299
same,glycan array binding signal (z-score),[28],-0.624

# Random excerpt: two entries already listed
binder,measurement,setting,value
B1,glycan array binding signal (z-score),[25],0.596
same,glycan array binding signal (z-score),[7],-0.149
